Primary screen of a compound library

From ChEMBL document CHEMBL3988442, “University of Dundee, Small-Polar-MMV Screening Library” (2021).

The filed quantity is “Percent Effect” (%).
The record does not define 0% and 100%; most values in the screen are far below 50% and negative numbers occur (in some assays of this library far below -100).
This is an unselected part of the compounds tested.
Two or more numbers in one place are separate tests of the same structure; such repeats can differ widely.

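Cell assay of Leishmania donovani living inside macrophages; the read-out is not stated. Tested at 30 µM. Higher reads as stronger inhibition (inferred: compounds with an IC50 in retests scored well above the rest). Of about 69,000 compounds tested this way, about 1,000 (1.5%) reached 50% or more in at least one test.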

Compound	Percent Effect
CCN1CCC2(CN(C(=O)N(C)C)CC23CCNCC3)C1=O.O=C(O)C(F)(F)F (stereo unspecified)	12.97%
O=C(O)C(F)(F)F.O=C(O)C(F)(F)F.O=C1CC2(CCN(Cc3ccncc3)C2)CN1c1cccc(F)c1 (stereo unspecified)	16.72%
CCN1CCN(c2ccc(F)cc2C(C)NCc2cscn2)CC1 (stereo unspecified)	2.061%
CC(=O)N1CCN(C(=O)CCOc2ccc(C(C)C)cc2)CC1	-3.767%
Cn1nc(Cn2cccn2)c2c1CN(Cc1ccoc1)C2.O=C(O)C(F)(F)F	27.27%
Cc1ccc(C(=O)N2CCC(Oc3ccc(C)c(C)c3)CC2)c(=O)[nH]1	57.43%
O=C(O)C(F)(F)F.c1c2c(nn1CC1CC1)C(CNC1CCOCC1)OCC2 (stereo unspecified)	-1.655%
NC(=O)CCCNC(=O)Cc1csc(Cc2ccccn2)n1	40.57%
O=C(O)C(F)(F)F.[H][C@@]12CCN(c3cccc(F)c3)C[C@@]1([H])O[C@@H](C(=O)N1CCCC1)C2	9.265%
O=C(O)[C@@H]1CN(Cc2cc3c(cc2Cl)OCO3)C[C@H]1C1CC1	10.13%
O=C(NC1(c2nc(C3CC3)no2)CCCCC1)c1ccncc1	33.54%
O=C(COCC(F)(F)F)NS(=O)(=O)c1ccc2c(c1)OCCCO2	1.037%
CC(C)c1nnc2n1CCN(Cc1ncc(-c3ccccc3)o1)C2	22.92%
CO[C@H]1CCN(S(=O)(=O)c2cn(C)cn2)[C@H]1Cc1ccccc1.O=C(O)C(F)(F)F	3.179%
C[C@]1(O)CCN(Cc2cncs2)C[C@@H]1Oc1cccc(F)c1	-5.408%
CSCCC(=O)N1CCc2c(ncnc2N2CCOCC2)C1	19.05%
O=C(O)C(F)(F)F.[H][C@@]12CN(Cc3ccco3)CCO[C@]1([H])CN(S(=O)(=O)CC)C2	-36.42%
O=C(O)C(F)(F)F.O=C(c1cccnc1)N1CCOC2(COCCN(c3cncnc3)C2)C1 (stereo unspecified)	-25.95%
[H][C@@]12CCN(C(=O)c3cccnc3OC)C[C@@]1([H])O[C@H](c1ccncn1)C2	-22.63%
CCc1ccc(OCCn2cccn2)cc1	-7.032%
CC(C)c1ncc(Cl)c(C(=O)N2CCN(C3CC3)CC2)n1	4.131%
COc1ccc(NC(C)=O)cc1S(=O)(=O)Nc1ccon1	25.97%
O=C(O)C(F)(F)F.c1cncc(N2CCCn3nnc(COCC4CC4)c3C2)c1	0.2772%
O=C(c1cccnc1)N1CCCC(c2ncncc2-c2ccncc2)C1 (stereo unspecified)	1.341%
CCN(CC)Cc1nnc2sc(-c3cc(C(C)C)[nH]n3)nn12	-6.514%
CN(C)Cc1cnc2n1CCN(C(=O)NCc1ccccc1)CC2.O=C(O)C(F)(F)F	25.13%
c1ccc(CN2CCC(NCCSc3ncn[nH]3)C2)cc1 (stereo unspecified)	-108.7%
O=C(c1ccncc1)N1CCCn2nnc(Cn3cccn3)c2C1	8.516%
CC(C)c1ncc2c(n1)CN(Cc1nc(-c3ccoc3)no1)CC2	27.59%
O=C(NC1CC1)C1CCc2nnc(-c3cccc(C(F)(F)F)c3)n21 (stereo unspecified)	10.31%
O=C(NCCc1ccc(F)cc1)NC1CCCc2c1cnn2CCO (stereo unspecified)	7.008%
Cc1nc(-c2ccco2)ccc1C(=O)NCCN1CCN(C)CC1	-12.47%
O=C(C1CCOC1)N1CCC2(CC1)CN(Cc1nccs1)CCO2 (stereo unspecified)	21.27%
CCC(OC)C(=O)N1CCC2(CC1)c1nc[nH]c1CCN2S(C)(=O)=O (stereo unspecified)	-17.96%
Cc1ccc(C2(CN3CCN(Cc4cn(C)nc4C)CC3)CC2)cc1.Cl	31.06%
COc1cc(I)c(Cl)cc1C(=O)N(C)C	16.8% & 11.44%
O=C(c1ccc2c(c1)OCCCO2)N1CCCC(n2ccnc2)C1 (stereo unspecified)	25.79%

3 of the entries, repeated:

Compound,Percent Effect
CSCCC(=O)N1CCc2c(ncnc2N2CCOCC2)C1,19.05%
CCN1CCN(c2ccc(F)cc2C(C)NCc2cscn2)CC1 (stereo unspecified),2.061%
O=C(O)C(F)(F)F.O=C(c1cccnc1)N1CCOC2(COCCN(c3cncnc3)C2)C1 (stereo unspecified),-25.95%